Experimental data reported in PubChem BioAssay AID2810 (NMMLSC, 2010).
This is one part of the list. The main result of the screen is listed elsewhere. These columns were measured beside it and carry no call.

Experiment: modulators of CD8 T cell-vesicle binding, confirmation, cherry-picked primary hits, two concentrations (AID 2810);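 note: lower values mean blocking of vesicle binding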;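 for percent response (vesicle binding): ratio of mean FL2 vesicle stain of CD8+ cells to that row's control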
Details: 2C CD8+ T cell-vesicle binding, flow cytometry; for double positive events: CD8+/vesicle+ events
[1] = at 15.4 µM, stronger effect = lower value

Row | Structure (SMILES) | double positive events (at 7.7 µM) [%] | double positive events [1] [%] | percent response (vesicle binding) (at 7.7 µM) [%]
1 | N#Cc1cccc(NC(=O)CN2C(=O)NC3(CCCCCC3)C2=O)c1 | 9 | 21.9 | 320
2 | CCN(C(=O)C1CCCN1S(=O)(=O)c1ccc2c(c1)n(C)c(=O)c(=O)n2C)c1ccccc1 (stereo not given) | 30.6 | 11.4 | 154
3 | Cc1ccc(C(=O)Nc2ccc3c(c2)C(=O)N(CC2CCCO2)C3=O)cc1 (stereo not given) | 12.2 | 8.3 | 469
4 | COc1cc(CN2CC(=O)N(c3ccc(C)c(C)c3)C2=S)cc(OC)c1OC | 12.3 | 27 | 225
5 | Nc1nc(SCC(=O)Nc2ccc([N+](=O)[O-])cc2)[nH]c(=O)c1NC(=O)c1ccc(Br)o1 | 14.5 | 22.1 | 420
6 | CCSc1ccc([C@@H]2[C@@H]3C(=O)N(C)C(=O)[C@@H]3[C@]3(C(=O)OC)CCCCN23)cc1OC | 19 | 21.9 | 172
7 | CCc1nnc(NC(=O)CSc2nnc(CNc3ccc(OC)cc3)n2C)s1 | 20.2 | 20.8 | 368
8 | CCN(CC)S(=O)(=O)c1ccc(Cl)c(NC(=O)COC(=O)C2CCCCC2)c1 | 8.8 | 2.4 | 339
9 | O=C(COC(=O)C12CC3CC(CC(Br)(C3)C1)C2)Nc1cccc(S(=O)(=O)N2CCOCC2)c1 | 20.8 | 23.3 | 140
10 | Cc1ccc(/C=N/N=C2/NC(=O)C(CC(=O)Nc3ccc(Cl)cc3)S2)o1 (stereo not given) | 14.1 | 11.6 | 155
11 | O=S(=O)(c1ccc(Cl)cc1)N1CCC(O)(c2cccnc2)CC1 | 20 | 14 | 271
12 | COc1ccccc1CC(NC(C)=O)C(=O)NC1CCN(c2nnnn2-c2ccccc2)CC1 (stereo not given) | 16.6 | 11.1 | 319
13 | Cc1cccc(-c2nc(C#N)c(NCc3ccco3)o2)c1 | 15.1 | 19.3 | 215
14 | CCOC(=O)c1c(NC(=O)CSc2nnc(C)s2)sc2c1CCC(CC)C2 (stereo not given) | 7.9 | 29.3 | 121
15 | Cc1ccc(C2C3=C(CC(C)(C)CC3=O)N=C3c4ccccc4C(=O)C32)cc1 (stereo not given) | 27.6 | 14.1 | 251
16 | CCCCNc1c(-c2ccc(SC3CCCCC3)cc2)nc2cnccn12 | 28.1 | 32.5 | 778
17 | CC1CC(C)CN(S(=O)(=O)c2ccc(C(=O)N3CCN(c4ccccc4)CC3)cc2)C1 (stereo not given) | 7.8 | 24.5 | 326
18 | NC(=O)CCn1c(=O)oc2ccccc21 | 19.7 | 27 | 456
19 | CCCCNC(=O)/C(C#N)=C/c1ccc2c(c1)OCCO2 | 22.1 | 12.8 | 131
20 | O=C(Nc1ncc([N+](=O)[O-])s1)c1cccs1 | 4.1 | 41.4 | 95.2
21 | C/C(CC(=O)Nc1ccccn1)=N\NC(=O)c1ccccc1 | 12 | 27.6 | 216
22 | O=C(Nc1ccc(-c2nc3ccccc3o2)cc1)c1ccc(N2C(=O)C3C4C=CC(C4)C3C2=O)cc1 (stereo not given) | 34.4 | 9.2 | 421
23 | O=C(NCCc1nc2ccc(Cl)cc2[nH]1)C1CCC(=O)N(Cc2cccc(F)c2)C1 (stereo not given) | 29.9 | 4.3 | 404
24 | O=C(Cn1c(=S)[nH]c2ccccc2c1=O)N1CCN(c2ccccc2)CC1 | 18.4 | 19.5 | 198
25 | CC1(C)Cc2c(sc3nc4n(c(=N)c23)CCC4)CO1 | 28.8 | 17.1 | 316
26 | O=C(NCc1ccc2c(c1)OCO2)C(C(=O)c1ccccc1)n1cc(Cl)ccc1=O (stereo not given) | 14 | 22.1 | 444
27 | Cc1ccc(Cl)c2c1NC(=O)C2=O | 27.5 | 19.3 | 166

Row | Structure (SMILES) | double positive events (at 7.7 µM) [%] | double positive events [1] [%] | percent response (vesicle binding) (at 7.7 µM) [%]
28 | C=CC(C)(C)c1c(O)c(CC=C(C)C)c(O)c2c(=O)c3ccc(O)c(O)c3oc12 | 15.9 | 12.2 | 222
29 | Cc1cc(NC(=O)C(C)SCC(=O)Nc2ccccc2N2CCCCC2)no1 (stereo not given) | 14.9 | 17 | 203
30 | CCN(CC)c1ccc(NC(=O)c2ccco2)cc1 | 8.2 | 9.2 | 84.2
31 | Cn1c(Cn2c(=O)sc3ccccc32)nnc1SCC(=O)NC1CCCCC1 | 16.9 | 12 | 111
32 | COc1ccc(OCC(O)CNC(=O)Nc2ccc(C(C)(C)C)cc2)cc1 (stereo not given) | 15 | 15.4 | 478
33 | O=C(COc1ccc(Cl)cc1[N+](=O)[O-])N1CCCCCC1 | 18.2 | 12.7 | 116
34 | CC(C)(C)c1cc(-c2ccccc2)no1 | 33.1 | 30.7 | 830
35 | COc1ccc(NC(=O)/C(C#N)=C/c2cc(C)n(-c3ccc(N4CCOCC4)c([N+](=O)[O-])c3)c2C)cc1 | 12.1 | 27.7 | 290
36 | O=C(Nc1nccs1)c1nc[nH]c1C(=O)NCc1ccccc1 | 25.1 | 15.8 | 241
37 | O=C(O)Cc1sc(Nc2ccccc2)nc1-c1ccc(Cl)cc1 | 12.5 | 9.1 | 232
38 | COc1ccc(/C=C2\SC(=O)N(CC(=O)Nc3cccc(C)c3)C2=O)cc1O | 45.6 | 23.5 | 291
39 | NS(=O)(=O)c1ccc(NC(=O)c2ccccc2C(=O)N2CCCCC2)cc1 | 19.2 | 28.3 | 301
40 | CCCOc1ccc(N2C(=O)CC(N(C(=O)c3ccco3)c3ccc(OCCC)cc3)C2=O)cc1 (stereo not given) | 22 | 17.9 | 220
41 | Cc1cc(C)c(C#N)c(SCc2ccc3c(c2)OCO3)n1 | 5 | 10.4 | 310
42 | O=C(/C=C/c1ccc(Br)cc1)c1ccc(NC(=O)c2ccco2)cc1 | 26.8 | 4.7 | 132
43 | Cc1cc(Cl)c(OCCCSc2nc(C)cc(=O)[nH]2)c(Br)c1 | 10.3 | 9.5 | 114
44 | COc1ccc(-c2cc(CCCC(=O)NCc3ccccn3)no2)cc1 | 15.4 | 20.9 | 190
45 | CCCCC[C@@H](O)c1cc2ccccc2c(=O)o1 | 11.5 | 13.9 | 374
46 | O=C(CCCn1cnc([N+](=O)[O-])n1)Nc1ccc(Cl)cc1Cl | 13.4 | 10.1 | 110
47 | O=C(c1cc2ccccc2oc1=O)N(c1ccc(Cl)cc1)C1C=CS(=O)(=O)C1 (stereo not given) | 16.4 | 17.1 | 480
48 | O=C(Oc1ccc(C(=S)N2CCOCC2)cc1)c1ccc(F)cc1 | 25.9 | 22.8 | 851
49 | CC(C)c1cc(C(=O)N/N=C/C(Br)=C/c2ccccc2)n[nH]1 | 16.8 | 18 | 185
50 | Cc1ccc(S(=O)(=O)N(C)CC(=O)OCC(=O)NCCc2ccc(S(N)(=O)=O)cc2)cc1 | 39.8 | 16.2 | 555
51 | Cc1ccc(N2C(=O)S/C(=C/c3cn(C)c4ccccc34)C2=O)cc1 | 37.8 | 33.5 | 264
52 | CN1CCN(S(=O)(=O)c2ccc(C(=O)Nc3ccccc3)cc2)CC1 | 10.1 | 33.2 | 153
53 | O=C(CS(=O)(=O)c1c[nH]c2ccccc12)Nc1ccc(F)cc1 | 9.2 | 18.8 | 485
54 | NS(=O)(=O)c1ccc(CCNC(=O)C2CCCCC2)cc1 | 38.3 | 14.9 | 316

Row | Structure (SMILES) | double positive events (at 7.7 µM) [%] | double positive events [1] [%] | percent response (vesicle binding) (at 7.7 µM) [%]
55 | O=C1C(=O)N(CCCn2ccnc2)C(c2ccc([N+](=O)[O-])cc2)/C1=C(\O)c1ccc2c(c1)OCCO2 (stereo not given) | 34.2 | 26.3 | 236
56 | CCN1CCN(C(=O)C(=O)c2cn(CC(=O)N(CC)CC)c3ccccc23)CC1 | 20.2 | 29.5 | 282
57 | Cc1ccc(S(=O)(=O)N2CCN(C(=O)CNC(=O)c3ccc(Cl)cc3)CC2)cc1 | 6.9 | 23.9 | 106
58 | Cc1ccccc1NC(=S)N(C)Cc1cn(C)c2ccccc12 | 14.9 | 17.1 | 127
59 | CC(C)C(C(=O)NC1=NCCS1)c1ccc(Cl)cc1 (stereo not given) | 26.1 | 11.5 | 259
60 | Cc1nnc(NC(=O)CCC(=O)N2CCN(S(=O)(=O)c3cc([N+](=O)[O-])ccc3C)CC2)s1 | 8.4 | 16.2 | 301
61 | Cn1c(=O)c2c(ncn2CC(=O)OCCCC(=O)c2ccc(Br)cc2)n(C)c1=O | 34.6 | 15.7 | 526
62 | CCOC(=O)c1ccc(NC(=S)Nc2cccc(C)n2)cc1 | 27.7 | 36.5 | 354
63 | Cn1cc(C(=O)N/N=C/C=C/c2ccccc2)ccc1=O | 23 | 13 | 340
64 | Cc1ccc(SCC(=O)NNC(=O)C2CCCCC2)cc1 | 16.5 | 9.8 | 470
65 | Cc1cc(=O)oc2c3c(cc(OCC(=O)NCc4ccncc4)c12)OC(C)(C)CC3 | 13.3 | 24.8 | 138
66 | CN1CCN(C(=O)c2cc3ccccc3cc2O)CC1 | 18.4 | 9.2 | 240
67 | O=C(Nc1cccc(F)c1)NC1CCCc2ccccc21 (stereo not given) | 9.6 | 16.8 | 391
68 | CCC(C)Sc1ccc(-c2nc3cc(C)ccn3c2NC2CCCCC2)cc1 (stereo not given) | 12.6 | 17 | 167
69 | O=C(/C=C/c1ccc(F)cc1)N1CCN(Cc2ccccc2)CC1 | 24.6 | 6.8 | 362
70 | O=C(COC(=O)CCCSc1nc2ccccc2[nH]1)Nc1cccc(F)c1 | 4.8 | 13.2 | 96.4
71 | COc1ccccc1NC(=O)c1ccc(NC(=O)CSc2ncccn2)cc1 | 10.6 | 27.9 | 421
72 | CCOC(=O)c1cc2occc2n1CC(=O)NC1CCC(C)CC1 (stereo not given) | 36.9 | 16.5 | 348
73 | Cc1cc(C)nc(SCc2nnc(SCC(=O)O)n2-c2ccccc2)n1 | 30.7 | 15.3 | 312
74 | CCOC(=O)c1cc(CC)sc1/N=C/C1C(=O)CCCC1=O | 13.7 | 21.1 | 204
75 | COc1ccc(C(O)c2coc3ccc(O)c(CN(C)C)c23)cc1 (stereo not given) | 11.2 | 21 | 202
76 | Cc1ccc2nc(COc3ccc(Cl)cc3)cc(=O)n2c1 | 14.3 | 10.4 | 143
77 | COc1ccccc1NC(=O)CSc1nc2ccccc2cc1Cc1ccccc1 | 28.8 | 11.5 | 311
78 | CCN(CC)S(=O)(=O)c1ccc(NC(=O)C2c3ccccc3Oc3ccccc32)cc1 | 31.1 | 15.9 | 260
79 | Cc1onc(-c2ccccc2Cl)c1C(=O)Nc1cccc(-c2nc3ncccn3c2C)c1 | 8.4 | 29.6 | 95.8
80 | Nc1cc(C(=O)OCC(=O)c2ccc(CC(=O)N3CCOCC3)s2)ccc1Cl | 26.9 | 33.8 | 247

Only percent response (vesicle binding) (at 7.7 µM) [%] (five entries from above):
Row | Structure (SMILES) | percent response (vesicle binding) (at 7.7 µM) [%]
75 | COc1ccc(C(O)c2coc3ccc(O)c(CN(C)C)c23)cc1 (stereo not given) | 202
76 | Cc1ccc2nc(COc3ccc(Cl)cc3)cc(=O)n2c1 | 143
77 | COc1ccccc1NC(=O)CSc1nc2ccccc2cc1Cc1ccccc1 | 311
78 | CCN(CC)S(=O)(=O)c1ccc(NC(=O)C2c3ccccc3Oc3ccccc32)cc1 | 260
79 | Cc1onc(-c2ccccc2Cl)c1C(=O)Nc1cccc(-c2nc3ncccn3c2C)c1 | 95.8
